Measured values as given in paper PMC4029728.
Results are given in words; binding and its absence hold for the method and conditions named. Some binding calls cover weakened binding; strength is not graded here.

Biological target: T1, endogenous STAT1 of HeLa cells (human (endogenous in HeLa)), P42224
T1 chain: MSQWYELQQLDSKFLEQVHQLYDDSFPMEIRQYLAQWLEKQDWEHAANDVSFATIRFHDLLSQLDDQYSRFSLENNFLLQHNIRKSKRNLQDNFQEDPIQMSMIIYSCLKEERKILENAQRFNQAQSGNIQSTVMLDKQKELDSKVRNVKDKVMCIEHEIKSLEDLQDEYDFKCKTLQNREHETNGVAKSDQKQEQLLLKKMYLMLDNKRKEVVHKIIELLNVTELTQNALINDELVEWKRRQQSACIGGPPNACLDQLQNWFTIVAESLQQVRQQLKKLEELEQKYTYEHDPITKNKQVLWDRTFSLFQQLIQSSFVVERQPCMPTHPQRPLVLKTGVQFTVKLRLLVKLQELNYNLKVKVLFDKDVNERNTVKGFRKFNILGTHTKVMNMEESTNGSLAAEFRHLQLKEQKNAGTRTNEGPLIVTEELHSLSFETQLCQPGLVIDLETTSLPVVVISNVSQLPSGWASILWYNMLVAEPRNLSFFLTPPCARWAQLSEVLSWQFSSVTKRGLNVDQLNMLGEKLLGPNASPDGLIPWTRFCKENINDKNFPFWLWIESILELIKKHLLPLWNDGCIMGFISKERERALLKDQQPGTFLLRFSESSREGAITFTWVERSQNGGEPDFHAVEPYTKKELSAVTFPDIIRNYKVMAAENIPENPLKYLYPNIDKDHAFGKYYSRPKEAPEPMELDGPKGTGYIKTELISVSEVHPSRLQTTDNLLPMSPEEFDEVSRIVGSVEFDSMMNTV
Experiment: native gel or EMSA; cell extracts of IFNγ-prestimulated, staurosporine-treated HeLa cells expressing STAT1-GFP variants beside endogenous STAT1; [33P]-labelled M67 duplex oligonucleotide (single GAS site); 4% native acrylamide gel at 4°C; dimers seen as DNA-bound complexes, the heterodimer as a band between GFP-tagged and untagged homodimers; supershift with anti-STAT1 C-24
Conditions: remark: other sources report otherwise

B1: endogenous STAT1 of HeLa cells, P42224 1-750 (protein)
chain: T1 chain
  binding: binds
